Patent US7846941B2, “Compounds modulating c-kit and c-fms activity and uses therefor” (Plexxikon, Inc., priority 2005, dated 2010)
Some of these results come from one statement about several compounds together.

Biological target: Fms (UniProt P07333)
Assay: Fms assays of Examples 40 or 41 (AlphaScreen and 33P kinase assays, RAW264.7 pFMS, M-NFS-60 proliferation)
Conditions: read-out: IC50 in at least one of the Fms assays; at least one of the Fms assays described in Examples 40 or 41 (biochemical or cell-based)

Structure (SMILES)	IC50 [µM]
c1ccc(CNc2ccc(Cc3c[nH]c4ncccc34)cn2)cc1 [Compound P-0001, Benzyl-[5-(1H-pyrrolo[2,3-b]pyridin-3-ylmethyl)-pyridin-2-yl]-amine]	< 1
O=C(c1ccc(NCc2ccccc2)nc1)c1c[nH]c2ncccc12 [Compound P-0002, (6-Benzylamino-pyridin-3-yl)-(1H-pyrrolo[2,3-b]pyridin-3-yl)-methanone]	< 1
COc1ccc(CNc2ccc(Cc3c[nH]c4ncccc34)cn2)cc1 [Compound P-0004, (4-Methoxy-benzyl)-[5-(1H-pyrrolo[2,3-b]pyridin-3-ylmethyl)-pyridin-2-yl]-amine]	< 1
Clc1ccc(CNc2ccc(Cc3c[nH]c4ncccc34)cn2)cc1 [Compound P-0005, (4-Chloro-benzyl)-[5-(1H-pyrrolo[2,3-b]pyridin-3-ylmethyl)-pyridin-2-yl]-amine]	< 1
Fc1ccc(CNc2ccc(Cc3c[nH]c4ncccc34)cn2)cc1 [Compound P-0006, (4-Fluoro-benzyl)-[5-(1H-pyrrolo[2,3-b]pyridin-3-ylmethyl)-pyridin-2-yl]-amine]	< 1
Cc1ccc(CNc2ccc(Cc3c[nH]c4ncccc34)cn2)cc1 [Compound P-0007, (4-Methyl-benzyl)-[5-(1H-pyrrolo[2,3-b]pyridin-3-ylmethyl)-pyridin-2-yl]-amine]	< 1
c1csc(CNc2ccc(Cc3c[nH]c4ncccc34)cn2)c1 [Compound P-0008, [5-(1H-Pyrrolo[2,3-b]pyridin-3-ylmethyl)-pyridin-2-yl]-thiophen-2-ylmethyl-amine]	< 1
Clc1ccc(CNc2ccc(Cc3c[nH]c4nccc(Cl)c34)cn2)cc1 [Compound P-0009, [5-(4-chloro-1H-pyrrolo[2,3-b]pyridin-3-ylmethyl)-pyridin-2-yl]-(4-chloro-benzyl)-amine]	< 1
COc1ccnc2[nH]cc(Cc3ccc(NCc4ccc(Cl)cc4)nc3)c12 [Compound P-0010, [5-(4-Methoxy-1H-pyrrolo[2,3-b]pyridin-3-ylmethyl)-pyridin-2-yl]-(4-chloro-benzyl)-amine]	< 1
COc1ccnc2[nH]cc(Cc3ccc(NCc4ccc(C(F)(F)F)cc4)nc3)c12 [Compound P-0011, [5-(4-Methoxy-1H-pyrrolo[2,3-b]pyridin-3-ylmethyl)-pyridin-2-yl]-(4-trifluoromethyl-benzyl)-amine]	< 1
Cc1nc(NCc2ccc(C(F)(F)F)cc2)ccc1Cc1c[nH]c2ncccc12 [Compound P-0013, [6-Methyl-5-(1H-pyrrolo[2,3-b]pyridin-3-ylmethyl)-pyridin-2-yl]-(4-trifluoromethyl-benzyl)-amine]	< 1
Cc1nc(NCc2ccc(Cl)cc2)ccc1Cc1c[nH]c2ncccc12 [Compound P-0014, (4-Chloro-benzyl)-[6-methyl-5-(1H-pyrrolo[2,3-b]pyridin-3-ylmethyl)-pyridin-2-yl]-amine]	< 1
O=C(c1ccc(NCc2ccc(F)cc2)nc1)c1c[nH]c2ncccc12 [Compound P-0015, [6-(4-Fluoro-benzylamino)-pyridin-3-yl]-(1H-pyrrolo[2,3-b]pyridin-3-yl)-methanone]	< 1
O=C(c1ccc(NCc2cccc(F)c2)nc1)c1c[nH]c2ncccc12 [Compound P-0016, [6-(3-Fluoro-benzylamino)-pyridin-3-yl]-(1H-pyrrolo[2,3-b]pyridin-3-yl)-methanone]	< 1
CC(C)CNc1ccc(Cc2c[nH]c3ncccc23)cn1 [Compound P-0028, Isobutyl-[5-(1H-pyrrolo[2,3-b]pyridin-3-ylmethyl)-pyridin-2-yl]-amine]	< 1
c1cnc2[nH]cc(Cc3ccc(NCC4CC4)nc3)c2c1 [Compound P-0032, Cyclopropylmethyl-[5-(1H-pyrrolo[2,3-b]pyridin-3-ylmethyl)-pyridin-2-yl]-amine]	< 1
c1cnc2[nH]cc(Cc3ccc(NCC4CCCCC4)nc3)c2c1 [Compound P-0033, Cyclohexylmethyl-[5-(1H-pyrrolo[2,3-b]pyridin-3-ylmethyl)-pyridin-2-yl]-amine]	< 1
Clc1ccc(CNc2ccc(Cc3c[nH]c4ncc(Br)cc34)cn2)cc1 [Compound P-0038, [5-(5-Bromo-1H-pyrrolo[2,3-b]pyridin-3-ylmethyl)-pyridin-2-yl]-(4-chloro-benzyl)-amine]	< 1
COc1cnc2[nH]cc(Cc3ccc(NCc4ccc(C(F)(F)F)cc4)nc3)c2c1 [Compound P-0053, [5-(5-Methoxy-1H-pyrrolo[2,3-b]pyridin-3-ylmethyl)-pyridin-2-yl]-(4-trifluoromethyl-benzyl)-amine]	< 1
FC(F)(F)c1ccc(CNc2ccc(Cc3c[nH]c4ncc(Cl)cc34)cn2)cc1 [Compound P-0054, [5-(5-Chloro-1H-pyrrolo[2,3-b]pyridin-3-ylmethyl)-pyridin-2-yl]-(4-trifluoromethyl-benzyl)-amine]	< 1

Structure (SMILES)	IC50 [µM]
Clc1cccc(COc2ccc(Cc3c[nH]c4ncccc34)cn2)c1 [Compound P-0055, 3-[6-(3-Chloro-benzyloxy)-pyridin-3-ylmethyl]-1H-pyrrolo[2,3-b]pyridine]	< 1
Clc1ccc(COc2ccc(Cc3c[nH]c4ncccc34)cn2)cc1 [Compound P-0056, 3-[6-(4-Chloro-benzyloxy)-pyridin-3-ylmethyl]-1H-pyrrolo[2,3-b]pyridine]	< 1
FC(F)(F)c1cccc(COc2ccc(Cc3c[nH]c4ncccc34)cn2)c1 [Compound P-0057, 3-[6-(3-Trifluoromethyl-benzyloxy)-pyridin-3-ylmethyl]-1H-pyrrolo[2,3-b]pyridine]	< 1
COc1cnc2[nH]cc(Cc3ccc(NCc4ccc(Cl)cc4)nc3)c2c1 [Compound P-0058, (4-Chloro-benzyl)-[5-(5-methoxy-1H-pyrrolo[2,3-b]pyridin-3-ylmethyl)-pyridin-2-yl]-amine]	< 1
Clc1ccc(CNc2ccc(Cc3c[nH]c4ncc(Cl)cc34)cn2)cc1 [Compound P-0059, (4-Chloro-benzyl)-[5-(5-chloro-1H-pyrrolo[2,3-b]pyridin-3-ylmethyl)-pyridin-2-yl]-amine]	< 1
CCN(CC)CCOc1cnc2[nH]cc(Cc3ccc(NCc4ccc(C(F)(F)F)cc4)nc3)c2c1 [Compound P-0060, {5-[5-(2-Diethylamino-ethoxy)-1H-pyrrolo[2,3-b]pyridin-3-ylmethyl]-pyridin-2-yl}-(4-trifluoromethyl-benzyl)-amine]	< 1
Oc1cnc2[nH]cc(Cc3ccc(NCc4ccc(C(F)(F)F)cc4)nc3)c2c1 [Compound P-0061, 3-[6-(4-Trifluoromethyl-benzylamino)-pyridin-3-ylmethyl]-1H-pyrrolo[2,3-b]pyridin-5-ol]	< 1
Oc1cnc2[nH]cc(Cc3ccc(NCc4ccc(Cl)cc4)nc3)c2c1 [Compound P-0062, 3-[6-(4-Chloro-benzylamino)-pyridin-3-ylmethyl]-1H-pyrrolo[2,3-b]pyridin-5-ol]	< 1
Clc1ccc(CNc2ccc(Cc3c[nH]c4ncc(OCCN5CCOCC5)cc34)cn2)cc1 [Compound P-0063, (4-Chloro-benzyl)-{5-[5-(2-morpholin-4-yl-ethoxy)-1H-pyrrolo[2,3-b]pyridin-3-ylmethyl]-pyridin-2-yl}-amine]	< 1
FC(F)(F)c1ccc(CNc2ccc(Cc3c[nH]c4ncc(OCCN5CCCC5)cc34)cn2)cc1 [Compound P-0064, {5-[5-(2-Pyrrolidin-1-yl-ethoxy)-1H-pyrrolo[2,3-b]pyridin-3-ylmethyl]-pyridin-2-yl}-(4-trifluoromethyl-benzyl)-amine]	< 1
FC(F)(F)c1ccc(CNc2ccc(Cc3c[nH]c4ncc(OCCN5CCOCC5)cc34)cn2)cc1 [Compound P-0065, {5-[5-(2-Morpholin-4-yl-ethoxy)-1H-pyrrolo[2,3-b]pyridin-3-ylmethyl]-pyridin-2-yl}-(4-trifluoromethyl-benzyl)-amine]	< 1
CCN(CC)CCCOc1cnc2[nH]cc(Cc3ccc(NCc4ccc(C(F)(F)F)cc4)nc3)c2c1 [Compound P-0066, {5-[5-(3-Diethylamino-propoxy)-1H-pyrrolo[2,3-b]pyridin-3-ylmethyl]-pyridin-2-yl}-(4-trifluoromethyl-benzyl)-amine]	< 1
CCN(CC)CCCOc1cnc2[nH]cc(Cc3ccc(NCc4ccc(Cl)cc4)nc3)c2c1 [Compound P-0069, (4-Chloro-benzyl)-{5-[5-(3-diethylamino-propoxy)-1H-pyrrolo[2,3-b]pyridin-3-ylmethyl]-pyridin-2-yl}-amine]	< 1
O=C(Nc1ccc(Cc2c[nH]c3ncccc23)cn1)c1ccc(C(F)(F)F)cc1 [Compound P-0072, N-[5-(1H-Pyrrolo[2,3-b]pyridin-3-ylmethyl)-pyridin-2-yl]-4-trifluoromethyl-benzamide]	< 1
O=C(Nc1ccc(Cc2c[nH]c3ncccc23)cn1)c1ccc(F)cc1 [Compound P-0073, 4-Fluoro-N-[5-(1H-pyrrolo[2,3-b]pyridin-3-ylmethyl)-pyridin-2-yl]-benzamide]	< 1
O=C(Nc1ccc(Cc2c[nH]c3ncccc23)cn1)c1ccc(Cl)cc1 [Compound P-0074, 4-Chloro-N-[5-(1H-pyrrolo[2,3-b]pyridin-3-ylmethyl)-pyridin-2-yl]-benzamide]	< 1
C[C@H](Nc1ccc(Cc2c[nH]c3ncccc23)cn1)c1ccc(Cl)cc1 [Compound P-0075, [(S)-1-(4-Chloro-phenyl)-ethyl]-[5-(1H-pyrrolo[2,3-b]pyridin-3-ylmethyl)-pyridin-2-yl]-amine]	< 1
O=C(Nc1ccc(Cl)cc1)c1ccc(Cc2c[nH]c3ncccc23)cn1 [Compound P-0076, 5-(1H-Pyrrolo[2,3-b]pyridin-3-ylmethyl)-pyridine-2-carboxylic acid (4-chloro-phenyl)-amide]	< 1
Clc1ccc(NCc2ccc(Cc3c[nH]c4ncccc34)cn2)cc1 [Compound P-0078, (4-Chloro-phenyl)-[5-(1H-pyrrolo[2,3-b]pyridin-3-ylmethyl)-pyridin-2-ylmethyl]-amine]	< 1
